Experimental data reported in PMC11904943.

The chains behind the UniProt entries cited, without tags or fusion partners. Where a name states a change or a piece, a line headed by the entry shows the natural chain unless it says otherwise.
UniProt Q9BTA9: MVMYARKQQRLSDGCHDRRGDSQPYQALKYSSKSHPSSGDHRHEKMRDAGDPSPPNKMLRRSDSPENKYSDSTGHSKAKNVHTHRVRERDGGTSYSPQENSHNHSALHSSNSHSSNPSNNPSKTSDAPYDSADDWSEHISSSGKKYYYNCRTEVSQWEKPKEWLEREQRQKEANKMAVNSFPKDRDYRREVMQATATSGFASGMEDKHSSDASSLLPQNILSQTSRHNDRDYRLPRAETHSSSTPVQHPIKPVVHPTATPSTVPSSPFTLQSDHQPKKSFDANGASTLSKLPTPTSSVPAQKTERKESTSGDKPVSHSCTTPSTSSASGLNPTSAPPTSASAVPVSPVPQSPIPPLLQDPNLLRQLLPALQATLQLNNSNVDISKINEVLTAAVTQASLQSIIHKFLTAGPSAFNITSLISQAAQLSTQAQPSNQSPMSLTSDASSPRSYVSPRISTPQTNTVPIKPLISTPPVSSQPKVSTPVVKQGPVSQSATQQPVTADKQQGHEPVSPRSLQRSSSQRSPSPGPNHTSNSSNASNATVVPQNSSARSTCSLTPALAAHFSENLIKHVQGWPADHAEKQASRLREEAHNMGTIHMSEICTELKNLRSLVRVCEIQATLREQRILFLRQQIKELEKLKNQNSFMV

Molecular target: T1, Flag-RBM12 (human) (UniProt Q9NTZ6)
T1 sequence: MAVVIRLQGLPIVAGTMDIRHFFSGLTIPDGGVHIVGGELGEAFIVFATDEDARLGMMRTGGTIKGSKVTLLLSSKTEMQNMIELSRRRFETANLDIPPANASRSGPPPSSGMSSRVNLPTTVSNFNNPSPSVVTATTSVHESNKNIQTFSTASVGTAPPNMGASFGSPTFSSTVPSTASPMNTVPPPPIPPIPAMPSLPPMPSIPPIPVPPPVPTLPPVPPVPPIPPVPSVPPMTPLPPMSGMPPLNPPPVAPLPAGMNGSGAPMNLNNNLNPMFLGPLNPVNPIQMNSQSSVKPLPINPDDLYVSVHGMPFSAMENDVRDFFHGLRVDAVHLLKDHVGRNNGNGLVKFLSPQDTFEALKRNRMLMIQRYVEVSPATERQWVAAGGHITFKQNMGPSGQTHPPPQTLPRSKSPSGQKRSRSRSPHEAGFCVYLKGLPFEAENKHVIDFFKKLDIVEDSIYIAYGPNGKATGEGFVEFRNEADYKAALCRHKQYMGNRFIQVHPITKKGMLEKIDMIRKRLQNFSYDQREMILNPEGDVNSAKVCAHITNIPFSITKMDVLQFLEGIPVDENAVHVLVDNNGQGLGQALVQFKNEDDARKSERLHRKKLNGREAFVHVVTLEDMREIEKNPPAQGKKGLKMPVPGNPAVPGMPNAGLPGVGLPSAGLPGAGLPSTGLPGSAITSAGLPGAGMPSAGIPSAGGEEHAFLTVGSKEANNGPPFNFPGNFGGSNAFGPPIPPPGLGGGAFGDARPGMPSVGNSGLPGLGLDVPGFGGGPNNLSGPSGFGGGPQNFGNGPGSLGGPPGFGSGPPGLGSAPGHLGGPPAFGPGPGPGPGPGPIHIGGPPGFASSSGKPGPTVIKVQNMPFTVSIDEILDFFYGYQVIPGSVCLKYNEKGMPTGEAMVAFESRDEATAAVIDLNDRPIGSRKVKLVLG
Assay: co-IP; HEK293T cells transfected with HA-WAC or HA-WACΔCC and Flag-RBM12; IP with anti-Flag M2 agarose beads, western blot with anti-HA

binding: no binding
Substance: HA-tagged WACΔCC (from UniProt Q9BTA9)

No constants are given. Whether binding was seen depends on the method and setting. Binding seen in cells or lysates may run through a third protein. Tags and fused reporters may be left off the sequences shown.
